This is an account of results in PubChem BioAssay AID901 (National Center for Advancing Translational Sciences (NCATS), 2007).

The list shows a part of the results. These are further read-outs of the screen, such as a control signal, another cell line or another target. No call is given for them. Most of these compounds were active or inconclusive in the main read-out, so they are no random draw. The note in brackets gives the kind of curve behind each potency; many fits are weak.

This test is described as follows: qHTS Assay for Identifying the Cell-Membrane Permeable IMPase Inhibitors. As to conditions: CHO-M1 cells, IP1 accumulation, HTRF TR-FRET ratio; measured here: donor channel 620 nm AC50.
`O=C(Nc1ccc(N2CCOCC2)cc1)C1CCCCC1`: the AC50 is 31.6 µM [falling, single point].
For `CCOc1ccc2nnc(-c3ccc(Br)cc3)n2n1` the value was 31.6 µM [rising, single point]; for `COC(=O)CSc1nnc(CCc2nc3ccccc3[nH]2)n1C`, 1 µM [falling, full curve].
For `C/C(=N\NC(=O)CC1N=C(Cc2ccccc2)NNC1=O)c1ccc(Cl)cc1Cl` (centres undefined) the value was 6.31 µM [rising, single point]; for `Cc1cc(C)c(S(=O)(=O)N(C)CC(=O)N2CCCCC2)c(C)c1`, 12.6 µM [falling, partial curve, poor fit].
For `Cc1ccc(SCCC(=O)NC(C)C)cc1` the value was 0.631 µM [falling, full curve].
For `COc1cccc(NC(=O)CN2CCN(c3nc(-c4cccc(OC)c4)cs3)CC2)c1`, the AC50 was 31.6 µM [falling, single point].
The result for `CCOC(=O)c1c(NC(=O)CN2C(=O)NC3(CCC(CC)CC3)C2=O)sc(C)c1-c1ccc(C)cc1` (centres undefined) reads 35.5 µM [rising, single point].
Take `COc1ccc2nc(C)cc(SCC(=O)N/N=C/c3cccc4ccccc34)c2c1`: the AC50 was 31.6 µM [falling, single point].
For `CC1(C)CC(=O)C2=C(C1)N(Cc1cccnc1)C(=O)C2(NC(=O)C1CC1)C(F)(F)F` (centres undefined) the value was 15.8 µM [rising, single point]; for `COc1cccc(N2CCN(Cc3nc(N)nc(N4CCCc5ccccc54)n3)CC2)c1`, 0.501 µM [falling, single point]; for `COCCCN(C(C)=O)c1nc(-c2ccc(OC)cc2)cs1`, 0.501 µM [rising, full curve, poor fit].
`CCOC(=O)c1sc(N2C(=O)c3oc4ccc(C)cc4c(=O)c3C2c2ccccc2F)nc1C` (centres undefined): the AC50 is 5.62 µM [falling, single point].
For `Cc1ccccc1OCC(=O)Nc1cccc(N(C)S(C)(=O)=O)c1`, the AC50 was 35.5 µM [falling, single point].
For the compound `CCOC(=O)N1CCN(c2nc(C)c3c(n2)CC(C)CC3=O)CC1` (centres undefined), the AC50 was 0.0251 µM [rising, full curve, poor fit].
The result for `COc1ccc(CNC(=O)C2CSCCS2)cc1` (centres undefined) reads 1.26 µM [falling, full curve, poor fit]; that for `CCCC(=O)Nc1cc(-c2nc3ncccc3o2)ccc1C`, 0.2 µM [rising, single point].
For `CCOc1ccc2nc(NCCNC(=O)Nc3ccccc3)c(C#N)cc2c1` the value was 0.2 µM [falling, full curve].
Take `CN(C)c1nc(NCc2ccccc2)nc(SCC(=O)Nc2ccc(Cl)c(Cl)c2)n1`: the AC50 was 5.01 µM [rising, single point].
The result for `CCOC(=O)c1sc2ncn(/N=C/c3ccccn3)c(=O)c2c1C` reads 0.0631 µM [rising, full curve, poor fit]; that for `Cc1cccc(C2Nc3ccccc3C(=O)N2CCc2ccccc2)n1` (centres undefined), 5.01 µM [rising, single point].
For the compound `CCCCNC(=S)NNC(=O)c1csc(CC)c1`, the AC50 was 1 µM [falling, full curve].
For `COc1ccc(NC(=O)C(=O)N/N=C/c2cccnc2)c(OC)c1` the value was 1.58 µM [falling, partial curve, poor fit].
On to `O=c1c2ccccc2nc(SCc2ccccc2F)n1C1CCCC1`, for which the half-maximal activity concentration (AC50) was 0.178 µM [rising, full curve, poor fit].
As for `O=C(CSc1nnc(-c2cnccn2)n1Cc1ccco1)Nc1ccc(Br)cc1`, the AC50 was 35.5 µM [falling, single point].
For `CCOc1ccc(N=C(NC#N)SCC)cc1` the value was 0.2 µM [falling, full curve].
The result for `CCOC(=O)CCCNS(=O)(=O)c1c(C)ccc2nsnc12` reads 5.01 µM [falling, single point]; that for `COC(=O)c1ccccc1NC(=O)Cc1ccccc1OC`, 0.2 µM [rising, single point].
As for `Cc1ccc(C(C)NC(=O)c2ccco2)cc1` (centres undefined), the AC50 is 0.126 µM [falling, single point].
As for `CCn1c(C)c(C(C)=O)c(N2CCN(C(=O)c3ccco3)CC2)nc1=S`, the AC50 is 5.62 µM [falling, full curve, poor fit].
For `CCOc1ccccc1NC(=O)c1ccc(S(=O)(=O)N2CCOCC2)cc1`, the AC50 is 0.794 µM [rising, full curve].
On to `CCN(CC)C(=O)/C(=C\c1ccc(Br)cc1)NC(=O)c1ccccc1OC`, for which the AC50 was 10 µM [falling, partial curve].
For `Cc1c(C(=O)Nc2ccncc2)sc2nc(-c3ccc(F)cc3)cn12` the value was 31.6 µM [rising, single point]; for `CCC(=O)Nc1ccc(NC(=O)c2cccc(OC)c2)nc1`, 0.501 µM [falling, full curve]; for `O=C1c2ccccc2C(=O)N1c1n[nH]c(CCc2ccccc2)n1`, 0.158 µM [falling, partial curve, poor fit].
Regarding `CN(C)[C@@H]1CCC[C@@H]1OC(=O)C(c1ccccc1)c1ccccc1`, the AC50 is 0.224 µM [rising, full curve, poor fit].
For `COc1cccc(OCC(O)CO)c1` (centres undefined) the value was 31.6 µM [falling, single point].
As to `COc1cc(SC)ccc1C(=O)NCCCOC(C)C`, the AC50 was 20 µM [rising, single point].
`Nc1ccc2oc(-c3ccc4nc[nH]c4c3)nc2c1`: the AC50 is 0.0158 µM [rising, full curve, poor fit].
The result for `O=C(Cn1cnc2c(nnn2Cc2ccc(Cl)cc2)c1=O)NC1CCCC1` reads 0.316 µM [rising, single point]; that for `COC(=O)c1ccccc1NC(=S)N(Cc1ccc2c(c1)OCO2)Cc1cc2cc(C)ccc2[nH]c1=O`, 5.62 µM [rising, full curve].
For the compound `CC1CCN(C(=O)C2CCN(CCCc3ccccc3)CC2)CC1`, the AC50 is 3.16 µM [rising, single point].
The result for `CC1CCCN(C(=O)C2c3ccccc3C(=O)N3CCc4ccccc4C23)C1` (centres undefined) reads 20 µM [rising, partial curve, poor fit].
For `Nn1c(SC/C=C/c2ccccc2)nnc1-c1ccncc1` the value was 35.5 µM [falling, single point].
